Measurements as given in US20240034752A1 (priority 2021, published 2024).

Test: peptide made by a vendor (Fmoc solid-phase peptide synthesis)
Settings: whole synthesis, 210 nm

RRRQRRKKRGSGVRRRRLSNVSL
final HPLC purity: 98.3%

End groups of sequences in plain letters are not given here.
